Source: US20220389355A1, “CELL AGGREGATE, PRODUCING METHOD FOR MANUFACTURING CELL AGGREGATE, PRODUCING KIT FOR CELL AGGREGATE, AND CHEMICAL COMPOUND EVALUATING METHOD USING CELL AGGREGATE” (THE JAPAN WOOL TEXTILE CO., LTD., priority 2019, published 2022)

Legend:
[1] = tested on: cardiomyocytes derived from iPS cells (Pluricyte) multicellular construct; conditions: cumulative addition 0, 1, 10, 100, 1000 nM; 10 minutes after each addition; eighth day of the culture
[2] = tested on: cardiomyocyte multicellular construct (human iPS cell derived cardiomyocytes); test: Example 7: calcium imaging evaluation of response of cardiomyocyte multicellular construct against compound; conditions: cumulative addition 1 to 1000 nM, seventh day of the culture
Experimental: Cells were seeded and cultured in the same manner as in Example 6, except that the cells were seeded such that the seeding amount per unit area of the scaffold was 6000 cells/mm^2.
On the sixth day of the culture, the cardiomyocyte multicellular construct was placed such that a surface containing more cells faced the bottom surface of a culture dish (IWAKI Multiwell Plate, Non-treated surface for suspension cell culture 6. Well), and was then left to stand for a day. On the seventh day of the culture, a calcium indicator (EarlyTox Cardiotoxicity Kit, Molecular Devices LLC) was added to the culture medium at a volume ratio of 25/100 to fluorescently stain calcium ions in the cardiomyocytes.
The fluorescence intensities in the entire 10-fold magnified visual fields of the obtained images were plotted versus time using an analysis software CellPathfinder, Yokogawa Electric Corp.), and thus signal waveforms of calcium ions in the cardiomyocytes were obtained. Verapamil is a Ca channel antagonist having an Ikr inhibitory effect.

[3] = tested on: human iPS cell derived cardiomyocyte multicellular construct; conditions: 900 nM, 120 minutes after the addition, fourth day of the culture

- Membrane potential signal waveform [1]: prolonged waveforms
- Synchronous beating (calcium ion concentration changes at different sites) [3]: the synchronous beating was suppressed
Compound: Cc1cccc(CCN2CCC(C(=O)c3ccc(NS(C)(=O)=O)cc3)CC2)n1 [Example E-4031]
- Concentration at which arrhythmia occurred [2]: ≥ 100 nM
- Arrhythmia (beating behavior at measurement point B vs A) [3]: arrhythmia occurred
